# Data as given in PubChem BioAssay AID652243 (Drosophila RNAi Screening Center, 2013)
# Assay: 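Knock-downs that decrease or increase androgen receptor reporter signal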 (primary screen)
# Cells: Drosophila S2R+ cells
# Reagents: long dsRNA against Drosophila genes
# Time to read-out: 72 h (48 h, then 24 h hormone)
# Conditions: synthetic androgen R1881 at 10 nM for 24 h
# Detection: 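Per-well raw luminescence of the androgen-driven firefly reporter and of the Renilla control, two replicates each, without normalisation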
# Direction: firefly reporter light: higher = more light from androgen-responsive reporter; Renilla control light: higher = more constitutive control signal (cell number, transfection)
# Hit rule: 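Hit when the log firefly-to-Renilla ratio dropped or increased by a fixed fold versus the mean of GFP or LacZ controls across duplicate plates; lowering cut given as 1.5 and as 3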
# Calls: active = hit: reporter lowered or raised; inactive = no hit
# The screen tested about 24,000 reagents; shown is a random part of those with a known target gene and a result. In the full data, 246 (1%) got an active call. 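Plates not normalised; calls are printed but the firefly/Renilla ratio behind them is not deposited; fold cut for lowering reported inconsistently.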 Raw values vary from plate to plate and are shown uncorrected. Entries without a mark were called inactive. A plus sign joins genes that one reagent is predicted to hit. Not given: the amount of reagent.
target,PubChem SID,"firefly reporter light, replicate 1","firefly reporter light, replicate 2","Renilla control light, replicate 1","Renilla control light, replicate 2"
cysu,SID104195694,66327,62858,2.07e6,1.16e6
cysu,SID104207382,1.01e6,1.06e6,3.26e5,2.51e5
cysu,SID104216644,9.54e5,9.36e5,2.10e6,1.94e6
CG10383,SID104181842,8.06e5,8.18e5,2.05e6,2.43e6
CG10383,SID104207854,6.62e5,8.58e5,9.88e5,1.10e6
OtopLb,SID104180386,8.21e5,9.90e5,1.50e6,1.78e6
OtopLb,SID104205881,2.16e5,2.09e5,5.71e5,5.56e5
Boh1,SID104194279,97418,62218,6.25e5,6.66e5
PolZ2,SID104192117,72332,41802,2.06e6,6.43e5
Dad1,SID104182055,2.31e5,1.50e5,1.73e6,9.83e5
Sgs5bis,SID104196055,3.39e5,2.04e5,4.28e6,2.48e6
dbe,SID104180603,6.85e5,1.03e6,1.64e6,1.80e6
EndoU,SID104195264,80008,80546,6.88e5,5.59e5
eEF1alpha1,SID104187213,2.30e5,2.04e5,1.46e6,1.31e6
eEF1alpha1,SID104203679,4.00e5,3.07e5,3.61e5,3.24e5
SdhBL,SID104199831,2.82e5,1.18e5,1.20e6,6.11e5
CG12438,SID104181959,2.06e5,1.06e5,1.36e6,1.07e6
Pli,SID104196584,1.53e5,1.38e5,1.10e6,1.11e6
PolQ,SID104196798,47263,44612,7.53e5,8.85e5
CG12942,SID104186045,1.01e6,1.06e6,1.01e6,1.43e6
CG12942,SID104204531,6.47e5,5.42e5,1.05e6,7.42e5
CG31826,SID104183149,1.40e5,1.58e5,1.82e6,2.21e6
CG15517,SID104194848,1.74e5,1.48e5,1.92e6,2.48e6
CG42340,SID104197250,1.05e5,1.36e5,1.94e6,2.55e6
CG42340,SID104197633,3.62e5,4.51e5,3.83e6,3.99e6
CG42340,SID104198097,1.14e5,1.26e5,2.97e6,2.38e6
CG42340,SID104201318,8.07e5,6.59e5,2.06e6,1.82e6
CG42340,SID104202839,6.79e5,9.00e5,7.11e5,1.06e6
CG15256,SID104181732,1.61e5,1.47e5,1.72e6,2.00e6
CG15136,SID104182228,1.41e5,1.40e5,1.58e6,1.41e6
CG14434,SID104197719,2.50e5,3.06e5,2.59e6,3.40e6
VhaAC45,SID104186850,1.65e6,1.27e6,2.48e6,1.23e6
CG9483,SID104183018,1.41e6,7.19e5,2.11e6,1.05e6
CG9483,SID104208473,4.53e5,3.93e5,8.70e5,1.24e6
mRRF2,SID104195935,2.47e5,2.96e5,3.34e6,2.72e6
CG8564,SID104190789,7.92e5,8.45e5,1.52e6,1.87e6
Mob2,SID104188909,66025 (active),43730,2.62e5,2.73e5
Mob2,SID104188911,1.65e5,1.87e5,4.21e5,3.82e5
Mob2,SID104202631,1.26e6,1.28e6,1.74e6,1.94e6
CG12118,SID104197605,1.09e5,1.04e5,6.77e5,6.52e5
Rfk,SID104195246,25068,93256,3.00e5,3.82e5
Rfk,SID104207804,3.56e5,3.03e5,1.16e6,1.06e6
peo,SID104185787,1.16e6,7.45e5,2.49e6,1.83e6
CG1532,SID104200308,75164,40375,5.22e5,2.86e5
CG13813,SID104189860,2.08e5,1.80e5,1.78e6,1.84e6
BBS1,SID104189988,4.48e5,5.97e5,3.28e6,3.85e6
CG18508,SID104197947,3.67e5,3.36e5,4.58e6,3.28e6
CG18508,SID104204177,6.07e5,7.01e5,1.02e6,1.32e6
eIF1A,SID104196729,1.75e5,2.30e5,1.01e6,1.12e6
CG17327,SID104195017,2.21e5,2.14e5,2.56e6,2.27e6
CG10352,SID104199145,2.19e5,2.69e5,2.65e6,2.33e6
Tim17b1,SID104191971,33106,45851,1.34e6,9.29e5
CG9254,SID104181761,2.58e5,2.63e5,1.40e6,1.93e6
Zip42C.1,SID104184795,4.14e5,2.37e5,1.76e6,1.11e6
CG34223,SID104216456,8.34e5,8.99e5,2.17e6,1.92e6
Klp98A,SID104196516,3.19e5,2.32e5,3.60e6,3.67e6
Klp98A,SID104201482,5.89e5,5.98e5,2.39e6,2.84e6
CG16989,SID104198327,1.57e5,2.14e5,2.98e6,2.86e6
CG16989,SID104207947,5.95e5,7.86e5,1.07e6,1.07e6
Kdsr,SID104194037,4.72e5,5.53e5,2.76e6,4.21e6
Smg5,SID104182916,1.14e6,1.12e6,1.83e6,2.09e6
Smg5,SID104206378,6.04e5,5.60e5,5.86e5,7.72e5
PIG-L,SID104195369,2.75e5,2.71e5,2.91e6,3.09e6
PIG-L,SID104203479,8.63e5,7.04e5,1.15e6,9.70e5
CG33774 + l(2)k10201,SID104215439,1.13e6,1.09e6,1.13e6,1.54e6
crok,SID104182385,2.92e5,2.96e5,2.79e6,3.15e6
crok,SID104201125,7.27e5,5.36e5,1.85e6,2.27e6
crok,SID104208366,5.19e5,5.15e5,1.24e6,1.38e6
GCC185,SID104195285,1.90e5,1.69e5,2.67e6,2.20e6
CG10466,SID104181852,1.97e5,1.83e5,2.05e6,2.32e6
CG43123,SID104184841,1.69e5,1.40e5,4.18e5,3.83e5
CG32086,SID104190378,2.75e5,1.55e5,2.81e6,1.30e6
Act87E,SID104202001,4.01e5,3.16e5,3.57e5,2.60e5
Act87E,SID104202963,7.53e5,7.79e5,1.36e6,1.37e6
